B1: endogenous NDP52 (protein, UniProt Q13137 1-446)
chain: MEETIKDPPTSAVLLDHCHFSQVIFNSVEKFYIPGGDVTCHYTFTQHFIPRRKDWIGIFRVGWKTTREYYTFMWVTLPIDLNNKSAKQQEVQFKAYYLPKDDEYYQFCYVDEDGVVRGASIPFQFRPENEEDILVVTTQGEVEEIEQHNKELCKENQELKDSCISLQKQNSDMQAELQKKQEELETLQSINKKLELKVKEQKDYWETELLQLKEQNQKMSSENEKMGIRVDQLQAQLSTQEKEMEKLVQGDQDKTEQLEQLKKENDHLFLSLTEQRKDQKKLEQTVEQMKQNETTAMKKQQELMDENFDLSKRLSENEIICNALQRQKERLEGENDLLKRENSRLLSYMGLDFNSLPYQVPTSDEGGARQNPGLAYGNPYSGIQESSSPSPLSIKKCPICKADDICDHTLEQQQMQPLCFNCPICDKIFPATEKQIFEDHVFCHSL
B2: FLAG-NDP52^GE (protein, UniProt Q13137 1-446)
chain: MEETIKDPPTSAVLLDHCHFSQVIFNSVEKFYIPGGDVTCHYTFTQHFIPRRKDWIGIFRVGWKTTREYYTFMWVTLPIDLNNKSAKQQEVQFKAYYLPKDDEYYQFCYVDEDGVVRGASIPFQFRPENEEDILVVTTQEEVEEIEQHNKELCKENQELKDSCISLQKQNSDMQAELQKKQEELETLQSINKKLELKVKEQKDYWETELLQLKEQNQKMSSENEKMGIRVDQLQAQLSTQEKEMEKLVQGDQDKTEQLEQLKKENDHLFLSLTEQRKDQKKLEQTVEQMKQNETTAMKKQQELMDENFDLSKRLSENEIICNALQRQKERLEGENDLLKRENSRLLSYMGLDFNSLPYQVPTSDEGGARQNPGLAYGNPYSGIQESSSPSPLSIKKCPICKADDICDHTLEQQQMQPLCFNCPICDKIFPATEKQIFEDHVFCHSL
B3: FLAG-NDP52^WT (protein, UniProt Q13137 1-446)
chain: MEETIKDPPTSAVLLDHCHFSQVIFNSVEKFYIPGGDVTCHYTFTQHFIPRRKDWIGIFRVGWKTTREYYTFMWVTLPIDLNNKSAKQQEVQFKAYYLPKDDEYYQFCYVDEDGVVRGASIPFQFRPENEEDILVVTTQGEVEEIEQHNKELCKENQELKDSCISLQKQNSDMQAELQKKQEELETLQSINKKLELKVKEQKDYWETELLQLKEQNQKMSSENEKMGIRVDQLQAQLSTQEKEMEKLVQGDQDKTEQLEQLKKENDHLFLSLTEQRKDQKKLEQTVEQMKQNETTAMKKQQELMDENFDLSKRLSENEIICNALQRQKERLEGENDLLKRENSRLLSYMGLDFNSLPYQVPTSDEGGARQNPGLAYGNPYSGIQESSSPSPLSIKKCPICKADDICDHTLEQQQMQPLCFNCPICDKIFPATEKQIFEDHVFCHSL

No constants are given. Whether binding was seen depends on the method and setting. Binding seen in cells or lysates may run through a third protein. A result given as binding can be weak or reduced; the word gives no strength. Tags and fused reporters may be left off the sequences shown.

This test has as its target endogenous TAU (human (endogenous in SH-SY5Y)). The experiment in a line: proximity ligation.
In the case of B1, the binding entry is recorded as “binds”.

In the case of B2, the binding entry is “binds”.

Regarding B3, the binding entry was “binds”.

Source of the values: paper doi:10.1101/2024.08.13.24311780.
